The record followed here is PubChem BioAssay AID1347423 (Functional Genomics Laboratory (NCATS/FGL), 2020).

Out of some 52,000 sequences screened, about 210 (0.4%) were called active.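 The calls were made as follows: active = gene whose silencing raises cell survival under the drug, median off-target-corrected z-score across its silencing RNAs 2 or more; inactive = the rest.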 The list shows a part of the results.

This assay in a line: Resistance to Poly (ADP-Ribose) Polymerase inhibitor: Gene Identification via Genome-wide siRNA Screen. The settings on record: mouse BRCA2 R2336H ES cells, olaparib, CellTiter-Glo viability; stronger effect = higher value. In a few lines:
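Mouse BRCA2 R2336H ES cells were reverse-transfected with siRNA (20 nM final), treated at 48 h with 500 nM olaparib, and read by CellTiter-Glo after 72 h. Scores: MAD-based z per siRNA, median per gene, seed off-target correction.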
GGAAACAGCACAACAAACGTT against Adam26: the z-score is inactive: 0.0159.
Consider “GGACGUGGUCCAUAGACCATT against 6030411F23Rik”, for which the z-score was inactive: 2.16.
In the case of CCUGCUACCGUACAGUCUCTT against Esm1, the z-score is inactive: -1.7.
Then GGCUCCGUUAUAGAUGACATT against Aip, with inactive: -2.4; and GGAAUUUGUAAAUUUCCGATT against Gbas, with inactive: 0.765; and GGACCUUAAGAGAUAUCAATT against BC048390, with inactive: 1.69.
The same measure for GGUGGAUGAUGUUUAUCUCTT against Grsf1: inactive: 1.17.
Then GGACCAUGCUGGAUACUAUTT against BC023823, with inactive: -1.24; and “GGUGAUUGCCCGUUGAUUGTT against 2310069P03Rik”, with inactive: -0.116.
GGCUCUUACACUAUAUUUUTT against Tle1: the z-score is inactive: 0.0257.
On to GGGAUCUCUGAGCUCUGCUTT against Rilp, for which the z-score was inactive: -0.91.
With GGUAGCUGUCCAGGGUUAUTT against AI839550, the z-score is inactive: -0.817.
On to CGAAGGUCAAACAGUUUGATT against Stxbp6, for which the z-score was inactive: -0.829.
For the sequence GUUUGUGCUGUUAGGUUUUTT against Olfr1347, the z-score is inactive: 0.362.
With GCAUUCGAAAUGAAGAUAATT against Dnajb1, the z-score is inactive: 0.47.
As to “GGAUGUAAAACCCUAUAAUTT against 1700049G17Rik”, the z-score is inactive: -2.06.
Then “CGUAUCAGAUAUAUCACAUTT against 2610034N03Rik”, with inactive: 0.678; and GCCGAAAGCUAAAUCAAUCTT against Tnfrsf13c, with inactive: 0.0143.
Then “GGUCAUACAUGUGAAGACATT against 2310007F12Rik”, with inactive: 1.39.
For GGGAAGGGUCCAAAAAUCUTT against Mmp17, the z-score is inactive: 0.544.
Turning to CCUCUCCUGCUCUGACAUATT against Olfr933, the z-score was inactive: -1.38.
With GGUUUUCACUGCUAUAACATT against Lass6, the z-score was inactive: -0.204.
As to GGCUGACAUCCAGAAUUUCTT against Dci, the z-score is inactive: 0.394.
GGCGAUCAGGCAUCAUCCUTT against Aox1: the z-score is inactive: 1.23.
Turning to “GGAAAGCUUACAGUUGAAATT against 4933427D06Rik”, the z-score was inactive: 0.21.
For the sequence GGCAUUACCAAUUUUUGUATT against Tada2l, the z-score is inactive: 0.67.
Turning to AGUAUACUGGUUUCAUAACTT against MGC59529, the z-score is inactive: -0.0806.
In the case of UGGUACCACCAUUUUUACCTT against Olfr452, the z-score was inactive: -0.557.
Take AGGAUACGAUUGAACGGCUTT against Rac3: the z-score was inactive: 1.01.
For GGAGCUAUCAGAGAAGAGGTT against Slc13a4, the z-score is inactive: 1.08.
Turning to “GGCUUUUCAUUUGAUUAAGTT against 2310032D16Rik”, the z-score was inactive: 0.0265.
In the case of GCAACACGUACGAGCUCAATT against Pou2af1, the z-score was inactive: -1.96.
Regarding GGCUUUGUGCUAAAAAAAATT against Pgm2l1, the z-score is inactive: 0.12.
As for “GGUCAUCAGCUCUAUGAGCTT against D930046M03”, the z-score is inactive: 0.283.
Then UGCAGUGCACUGUACUACATT against Ssxb2, with inactive: 1.16; and CCAAGUUGGCAUACUAUUCTT against Pank4, with inactive: 1.33; and “GGCUCUGAGAUCUAUGAAATT against 2610510B01Rik”, with inactive: 0.652.
As for “GGCCAUUUUGCCUAAGAAGTT against 1810008A18Rik”, the z-score is inactive: 0.984.
As for GCAUAAGCGAAGAAGAAGUTT against Clk2, the z-score is inactive: -0.197.
The same measure for GGUGUGUAACAAGGCCUUCTT against Zfp339: inactive: 1.65; for GGAGAAGAUGCUGUCUUGCTT against Kif21b: inactive: -1.81; for GGUCGGAAGAAUCUAAAGGTT against Dmp1: inactive: 0.0661.
“CCCUCUGUGGUUAAAGACUTT against 0610012D17Rik”: the z-score was inactive: -0.506.
With “CCUACCUGAUCGUUCCUUATT against 1110007C02Rik”, the z-score was inactive: -0.256.
In the case of GGCUACCUUCUACCUAAGGTT against Cyp2g1, the z-score is inactive: 0.855.
For “GCAGAAUCGCUUCAGUUCUTT against 1810015P03Rik”, the z-score was inactive: 0.0076.
Take “GGGAAGAAUGGACAAAUAATT against 1810057C19Rik”: the z-score is inactive: -1.46.
Regarding GGAGAUUGGACCACUAUGATT against Sec24d, the z-score was inactive: -0.273.
“GGAUUCUCCAGACACCUUGTT against 1700011C14Rik”: the z-score was inactive: -0.514.
As for GGUAAAUGGCACACGUAGUTT against Hint1, the z-score is inactive: -0.229.
Regarding GGAGACUAGCACACAAAUATT against Nt5c, the z-score is inactive: -0.898.
The same measure for GGCAAUUCUUAACCUGUCCTT against Tacc1: inactive: -0.249; for “CCAAAUUUGAGAGCAUAAGTT against 3632451O06Rik”: inactive: -1.6.
As for “GGACAACCGAUGAAUUUCGTT against C630015F21Rik”, the z-score was inactive: -0.417.
The same measure for GGGAUUGGGUUCCAAUCUUTT against Ugalt2: inactive: 0.273; for “GCAGUUGAGUCCACCUCAATT against 4932418E24Rik”: inactive: -0.217.
GCCACCUCAUGAAUAAAAGTT against Cd8b: the z-score was inactive: 0.736.
Consider “GGUCCAUAACUUGUGUGCUTT against 3300002I08Rik”, for which the z-score is inactive: -0.311.
Then CCUGACUUCUACUAAAGAATT against AI480653, with inactive: -0.219; and CCUACGUGAACAUGACGGUTT against Hrb, with inactive: 1.39; and GCAUGGUAUCAGGUACAUATT against BC019367, with inactive: 1.43.
For CCAGCUGUGUAACACUACCTT against Gfi1, the z-score was inactive: 0.0736.
Regarding GCAUAAGCCUAAAAAUUCUTT against Ptprd, the z-score was inactive: 0.47.
In the case of CCGCCAUAUGUAUCACAGCTT against Rpl19, the z-score is inactive: -2.12.
GGUCAGAUGUGGAGAAAGGTT against Ufd1l: the z-score was inactive: -3.04.
Then GGCAAGAAGUGCACUGUAUTT against Rac3, with inactive: 0.901; and GCAGAUACUAGAGUUGUUUTT against Papd4, with inactive: 1.28; and “GGAGUUUCUGGAUGGUGGUTT against 2810405K02Rik”, with inactive: -1.22.
As to GGUGGCAGAGGAUAUGUUUTT against Acbd4, the z-score was inactive: -0.129.
As to GGAUGCAUGAGAAAUGUUATT against Tbc1d14, the z-score is inactive: 0.295.
Consider GGCCAACUAGGGUGUUUGUTT against Tsx, for which the z-score is inactive: -0.532.
As to GGCUACCACACAUACCAAATT against Stra6, the z-score is inactive: -0.124.
For CCUCUCCAUCUUUGACAUGTT against Olfr963, the z-score is inactive: -0.366.
In the case of GGACACUGCAAAAGAGGAGTT against Defcr4, the z-score was inactive: 0.714.
Then GCCUUAUUACUGACCUUUUTT against Smarcd2, with inactive: 1.1; and GGCAUGGAAGGGUUGGAUATT against Polk, with inactive: 1.25.
Then GGUAAAUGCUGACUGUGAUTT against Cilp, with inactive: -0.162.
With GGCGAUCGAGCCCUACAAATT against Bnip2, the z-score is inactive: -1.35.
As to GCAAGUAGAUUGUCUCGAGTT against Scd1, the z-score is inactive: 0.223.
For the sequence GCCAUCUGCUUUAACCUCUTT against Aebp2, the z-score is inactive: 4.
As to GCUAUGAAGAUUCGAUUAATT against Rpa1, the z-score is inactive: -2.34.
For GGCCCUUCUACAGAAGUUCTT against AI132321, the z-score was inactive: 0.942.
The same measure for GGUUGAAUACGAAGGCUUATT against Bicd1: inactive: -0.751.
For the sequence “GGUGAUGUAAGCGUGAUUATT against 1700065O13Rik”, the z-score was inactive: 0.522.
The same measure for GCUGUACACAAGUUGACCCTT against Fndc3: inactive: 0.351.
The same measure for “GGGUUGAACCUAAAGUCUATT against 4921521F21Rik”: inactive: -0.576.
Turning to CCCUCCUCCAGCAUAUGAATT against Fbxl18, the z-score was inactive: -0.72.
“GGAAUAUCUUCUCAAGUCUTT against A230102I05Rik”: the z-score is inactive: 0.97.
For the sequence CCCUAAGGAGUUUUGCGUUTT against Zfpn1a4, the z-score is inactive: -0.176.
Then GCUACAGGGAAAAAGUUCCTT against Olfr994, with inactive: 0.246; and GGUGCAUUUAUGUAUUUCCTT against Olfr916, with inactive: -2.2.
For the sequence GGGUCUCAACAAAAUCAGUTT against Gli3, the z-score was inactive: 0.193.
Consider GGCAACUUCAUUGUGAAGGTT against Man2b1, for which the z-score was inactive: -0.632.
As for GGCUACACUCUGACAGCACTT against Znhit2, the z-score is inactive: 0.224.
On to CCUGGAACAUAGAUGUAUATT against AU020939, for which the z-score is inactive: -1.2.
The same measure for GGACUAUGGUGGGAACUAGTT against Tas2r119: inactive: 0.384; for GGAAAAAAAAAAGCAGUGATT against Phactr4: inactive: 0.493; for GGGACAUCAGAUUAUUCAUTT against Zfp87: inactive: 0.137.
As for “GCUAAGUUUCACCCAAAGGTT against A930010I20Rik”, the z-score was inactive: -0.853.
Regarding GGCCAUUGUUGAAAUGUACTT against Myh14, the z-score is inactive: 0.415.
In the case of GGGAAGCUUUACUUUUUAATT against Mapk4, the z-score was inactive: 0.465.
As to GGAAGUUUUUCCAAGAAGATT against Acadl, the z-score was inactive: 1.65.
The same measure for GGUAGCUUAUUGCUAAGGCTT against Pnn: inactive: 1.06; for GGAAACCAGACUUUCCCUATT against V1ra5: inactive: -0.806.
